PubChem BioAssay AID504774 – Drosophila RNAi Screening Center | 2011
Test: 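Knock-downs that shift viability of MMS-exposed cells relative to untreated ones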 (primary screen). Cell system: Drosophila Kc167 cells. Knock-down reagent: long dsRNA against Drosophila genes, about 0.25 µg dsRNA per well. Timing: about 6 days: 3 days knock-down, then 3 days with or without MMS. Treatment: methyl methanesulphonate 0.004% (w/v) for 3 days after knock-down. Measured: 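Viability in wells given MMS, read as ATP luminescence, normalised by quantiles plate by plate and averaged across replicates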. Direction: mean viability with MMS and viability with MMS: higher = more surviving cells after MMS.
The screen tested about 23,000 reagents; below is an unselected part of those that have a named target and a result. 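Values are quantile-normalised luminescence on an arbitrary scale; higher means more cells surviving MMS.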 The numbers tell different reagents against one gene apart. Names joined by + are all predicted targets of the reagent.

| gene knocked down | reagent | mean viability with MMS | viability with MMS, replicate 1 | viability with MMS, replicate 2 |
| --- | --- | --- | --- | --- |
| l(3)04053 | 1 | 3.63e6 | 4.10e6 | 4.12e6 |
| mv | 1 | 3.44e6 | 3.90e6 | 3.92e6 |
| mv | 2 | 3.53e6 | 3.99e6 | 4.00e6 |
| CG13202 | 1 | 3.55e6 | 4.01e6 | 4.03e6 |
| CG42383 | 1 | 3.51e6 | 3.96e6 | 4.01e6 |
| Sfxn1-3 | 1 | 3.78e6 | 4.20e6 | 4.24e6 |
| CG34331 | 1 | 3.51e6 | 3.96e6 | 4.01e6 |
| mura | 1 | 3.27e6 | 3.69e6 | 3.87e6 |
| mura | 2 | 2.56e6 | 3.61e6 | 3.60e6 |
| mura | 3 | 3.54e6 | 4.00e6 | 4.05e6 |
| Slc25A46a | 1 | 3.53e6 | 3.95e6 | 3.98e6 |
| Dhrs4 | 1 | 3.60e6 | 4.11e6 | 4.05e6 |
| CG1273 | 1 | 3.45e6 | 3.84e6 | 4.00e6 |
| brun | 1 | 3.45e6 | 3.99e6 | 3.81e6 |
| tbc | 1 | 3.20e6 | 3.70e6 | 3.70e6 |
| tbc | 2 | 3.63e6 | 4.08e6 | 4.16e6 |
| CG14110 | 1 | 3.48e6 | 3.92e6 | 3.97e6 |
| CG4960 | 1 | 3.60e6 | 4.03e6 | 4.14e6 |
| fy | 1 | 3.47e6 | 3.98e6 | 3.88e6 |
| Ir56c | 1 | 3.72e6 | 4.06e6 | 4.33e6 |
| CG10116 | 1 | 3.38e6 | 3.81e6 | 3.82e6 |
| Cul6 | 1 | 3.46e6 | 3.87e6 | 3.97e6 |
| Sec3 | 1 | 3.58e6 | 4.09e6 | 4.02e6 |
| Drgx | 1 | 3.54e6 | 4.01e6 | 4.01e6 |
| Drgx | 2 | 3.64e6 | 4.15e6 | 4.06e6 |
| Vha14-1 | 1 | 3.35e6 | 3.91e6 | 3.84e6 |
| CG30109 | 1 | 3.57e6 | 4.13e6 | 3.94e6 |
| Ir52d | 1 | 3.34e6 | 4.01e6 | 3.83e6 |
| CG31560 | 1 | 3.37e6 | 3.88e6 | 3.80e6 |
| CG15914 | 1 | 3.40e6 | 3.86e6 | 3.82e6 |
| Hsdl2 | 1 | 3.57e6 | 4.08e6 | 4.03e6 |
| CG31248 | 1 | 3.56e6 | 4.01e6 | 4.03e6 |
| CG30031 + deltaTry + CG30025 + 1 more | 1 | 3.47e6 | 4.00e6 | 3.90e6 |
| CG2861 | 1 | 3.63e6 | 4.24e6 | 4.00e6 |
| CG31674 | 1 | 3.51e6 | 3.93e6 | 4.02e6 |
| Cyp12e1 | 1 | 3.50e6 | 3.94e6 | 4.02e6 |
| CG3942 | 1 | 3.73e6 | 4.18e6 | 4.12e6 |
| CG12464 | 1 | 3.51e6 | 4.01e6 | 4.02e6 |
| CAH2 | 1 | 3.59e6 | 4.00e6 | 4.12e6 |
| CG7579 | 1 | 3.55e6 | 4.16e6 | 3.90e6 |
| CG3894 | 1 | 3.67e6 | 4.27e6 | 4.04e6 |
| CG3894 | 2 | 3.71e6 | 4.15e6 | 4.28e6 |
| CG3894 | 3 | 3.34e6 | 4.10e6 | 4.08e6 |
| JhI-21 | 1 | 3.42e6 | 3.88e6 | 3.82e6 |
| CG18223 | 1 | 3.34e6 | 3.80e6 | 3.72e6 |
| CG12691 | 1 | 3.72e6 | 4.07e6 | 4.37e6 |
